Source: publication PMC9007350, “Aurintricarboxylic acid is a canonical disruptor of the TAZ-TEAD transcriptional complex” (PLoS ONE, 2022)
This continues a long series; more values of the same kind are listed elsewhere.

Tested on: TC/TEAD transcriptional profile in TC-expressing NIH3T3 cells
Experiment: Bulk RNA-Seq, differential gene expression and GSEA (TC ATA v. TC DMSO)
Type: cell-based, murine
Conditions: TC ATA v. TC DMSO
Method: NIH3T3 and HEK293 cells were obtained from the American Type Tissue Collection (ATCC, Manassas, VA) and cultured in DMEM containing 10% fetal bovine serum and penicillin/streptomycin. A TEAD dual luciferase reporter assay was performed as previously described. Cells were treated with vehicle control or ATA (10 μM) for 48 h before measuring the luciferase activity or processing the samples for RNA extraction. Each experiment was repeated at least 2-3 times. NIH3T3 cells were used. The extracted RNA (RNeasy Mini, Qiagen) from treated cells was either used for qPCR measurements or sent for bulk RNA-Seq. Sequencing runs were performed on an Illumina HiSeq 4000 sequencer (Genewiz). Subsequent bioinformatics analysis was performed in the Galaxy Project platform. Paired end reads were aligned to the murine genome ([…]2 [27]. Raw count files were generated with featureCounts using a corresponding GTF reference. Differential gene expression analysis was performed with DESeq2 [29]. Transcripts were considered to be differentially expressed if the false discovery rate < 0.05 and Log2FC > 2. When performing differential gene expression for GSEA analysis, the Limma package was used (<5 CPM filtering) with t-scores used for rank statistics. GSEA plots and statistics were generated with FGSEA with custom gene sets. Raw sequencing reads and processed files have been deposited in the GEO repository (data will be uploaded upon manuscript acceptance). The Universal Probe Library probes (Roche) and the associated primer sequences for the qPCR targets are listed below: […]

Structure (SMILES): O=C(O)C1=CC(=C(c2ccc(O)c(C(=O)O)c2)c2ccc(O)c(C(=O)O)c2)C=CC1=O [ATA, aurintricarboxylic acid]
- Log2 Fold Change (Tead4): -0.2498
- Log2 Fold Change (Thra): 0.2545
- Log2 Fold Change (Timp2): 0.2462
- Log2 Fold Change (Tjp2): -0.2192
- Log2 Fold Change (Tle2): 0.5839
- Log2 Fold Change (Tnc): -0.3143
- Log2 Fold Change (Tnfaip2): -0.2543
- Log2 Fold Change (Tnk2): -0.2124
- Log2 Fold Change (Tob1): 0.2928
- Log2 Fold Change (Tom1): 0.43
- Log2 Fold Change (Tsr1): -0.2296
- Log2 Fold Change (Ttn): 0.4567
- Log2 Fold Change (Txnrd1): -0.1991
- Log2 Fold Change (Uap1l1): 0.2452
- Log2 Fold Change (Ugt1a7c): 0.6553
- Log2 Fold Change (Utp4): -0.2274
- Log2 Fold Change (Uvrag): 0.279
- Log2 Fold Change (Vdr): 0.5001
- Log2 Fold Change (Vegfd): 0.2471
- Log2 Fold Change (Vgf): -0.3687
- Log2 Fold Change (Vwa5a): 0.294
- Log2 Fold Change (Wnt6): 0.9495
- Log2 Fold Change (Xdh): 0.3048
- Log2 Fold Change (Xirp2): 0.5497
- Log2 Fold Change (Zfp324): 0.3369
- Log2 Fold Change (Zfpm2): -0.5868
- Log2 Fold Change (gene 2510009E07Rik): 0.5258
- Log2 Fold Change (gene 2810025M15Rik): -0.3219
- Log2 Fold Change (gene 2900042K21Rik): -1.025
- Log2 Fold Change (gene 2900052L18Rik): 0.6386
- Log2 Fold Change (gene 4930523C07Rik): 0.5467
- Log2 Fold Change (gene 4933431E20Rik): 0.5936
- Log2 Fold Change (gene AI506816): -0.5762
- Log2 Fold Change (gene AU020206): -0.4278
- Log2 Fold Change (gene Abcb1b): -0.3097
- Log2 Fold Change (gene Abcc4): 0.3743
- Log2 Fold Change (gene Abcd3): 0.2172
- Log2 Fold Change (gene Abhd17a): -0.2859
- Log2 Fold Change (gene Abl2): -0.2791
- Log2 Fold Change (gene Ablim1): 0.3683
- Log2 Fold Change (gene Abra): 0.7907
- Log2 Fold Change (gene Acss2): 0.4226
- Log2 Fold Change (gene Acta2): 0.959
- Log2 Fold Change (gene Actc1): -0.9277
- Log2 Fold Change (gene Actn2): 1.014
- Log2 Fold Change (gene Actn3): 0.3752
- Log2 Fold Change (gene Actr3b): 1.112
- Log2 Fold Change (gene Adam23): 0.5896
- Log2 Fold Change (gene Adamts1): 0.3728
- Log2 Fold Change (gene Adamts2): 0.4007
- Log2 Fold Change (gene Adamts5): 0.3878
- Log2 Fold Change (gene Adamts9): 0.7758
- Log2 Fold Change (gene Adamts12): 0.3964
- Log2 Fold Change (gene Adcy7): -0.6069
- Log2 Fold Change (gene Adgrl1): 0.2609
- Log2 Fold Change (gene Adh7): 0.3304
- Log2 Fold Change (gene Adm): 0.8772
- Log2 Fold Change (gene Adora2b): -0.3391
- Log2 Fold Change (gene Adra1b): 0.8094
- Log2 Fold Change (gene Adssl1): 0.5943
- Log2 Fold Change (gene Aff3): 0.4724
- Log2 Fold Change (gene Agt): 1.509
- Log2 Fold Change (gene Ahrr): 1.0715
- Log2 Fold Change (gene Ak3): 0.2457
- Log2 Fold Change (gene Akr1c14): 0.4919
- Log2 Fold Change (gene Alcam): -0.4577
- Log2 Fold Change (gene Aldh1a1): 0.8976
- Log2 Fold Change (gene Aldh1a7): 0.9023
- Log2 Fold Change (gene Aldh3a1): 0.6906
- Log2 Fold Change (gene Aloxe3): -1.096
- Log2 Fold Change (gene Alpk3): 0.7828
- Log2 Fold Change (gene Anapc10): 0.3118
- Log2 Fold Change (gene Ankrd9): -0.3164
- Log2 Fold Change (gene Ankrd34a): 0.358
- Log2 Fold Change (gene Antxr1): 0.4939
- Log2 Fold Change (gene Aoc3): 1.3253
- Log2 Fold Change (gene Apba1): 1.356
- Log2 Fold Change (gene Apobec2): 0.5887
- Log2 Fold Change (gene Apol9a): 0.4332
- Log2 Fold Change (gene Aqp1): 0.311
- Log2 Fold Change (gene Arfgap3): 0.2502
- Log2 Fold Change (gene Arhgap22): -0.3046
- Log2 Fold Change (gene Arhgap28): -0.2569
- Log2 Fold Change (gene Arl4d): 0.4285
- Log2 Fold Change (gene Arsa): 0.2545
- Log2 Fold Change (gene Art3): 0.682
- Log2 Fold Change (gene Arv1): -0.3229
- Log2 Fold Change (gene Asap1): 0.1985
- Log2 Fold Change (gene Aspn): 1.692
- Log2 Fold Change (gene Atg16l2): 0.5753
- Log2 Fold Change (gene Atoh8): 1.29
- Log2 Fold Change (gene Atp6v0a1): 0.3381
- Log2 Fold Change (gene Atp6v0d1): 0.3858
- Log2 Fold Change (gene B3gnt5): -0.6705
- Log2 Fold Change (gene B3gnt9): 0.4625
- Log2 Fold Change (gene B4galnt3): -0.9756
- Log2 Fold Change (gene BC023105): -1.117
- Log2 Fold Change (gene BC055324): -0.2339
- Log2 Fold Change (gene Bax): 0.2261
- Log2 Fold Change (gene Bdh2): 0.896
- Log2 Fold Change (gene Bmf): 1.607
- Log2 Fold Change (gene Bmper): 0.5521
- Log2 Fold Change (gene Bms1): -0.2343
- Log2 Fold Change (gene Bnc1): -0.4619
- Log2 Fold Change (gene Bst2): 0.3077
- Log2 Fold Change (gene Btc): -1.307
- Log2 Fold Change (gene C1qtnf1): 0.7136
- Log2 Fold Change (gene C1qtnf6): 0.6079
- Log2 Fold Change (gene C1ra): 0.2648
- Log2 Fold Change (gene C1s1): 1.162
- Log2 Fold Change (gene C1s2): 1.065
- Log2 Fold Change (gene Cacna1a): 0.2433
- Log2 Fold Change (gene Cacna1c): 0.419
- Log2 Fold Change (gene Cacna1g): 0.7268
- Log2 Fold Change (gene Cad): -0.276
- Log2 Fold Change (gene Capn5): 0.4335
- Log2 Fold Change (gene Capn6): 0.413
- Log2 Fold Change (gene Carmn): 1.388
- Log2 Fold Change (gene Casp4): 0.5164
- Log2 Fold Change (gene Cat): 0.2291
- Log2 Fold Change (gene Cbr4): 0.3736
- Log2 Fold Change (gene Ccbe1): -1.0635
- Log2 Fold Change (gene Ccdc61): -0.2496
- Log2 Fold Change (gene Ccl2): 0.3728
- Log2 Fold Change (gene Ccn5): 2.113
- Log2 Fold Change (gene Ccnd1): -0.2482
- Log2 Fold Change (gene Ccnyl1): -0.1904
- Log2 Fold Change (gene Ccsap): -0.247
- Log2 Fold Change (gene Cct2): -0.2088
- Log2 Fold Change (gene Cd200): -1.032
- Log2 Fold Change (gene Cd276): 0.2233
- Log2 Fold Change (gene Cd300lg): 1.4
- Log2 Fold Change (gene Cdc40): -0.2212
- Log2 Fold Change (gene Cdca7): -0.1991
- Log2 Fold Change (gene Cdh11): 0.298
- Log2 Fold Change (gene Cdh15): -1.144
- Log2 Fold Change (gene Cdkn1a): 0.2603
- Log2 Fold Change (gene Cdon): 0.5124
- Log2 Fold Change (gene Cemip): 0.5859
- Log2 Fold Change (gene Cfap36): -0.3751
- Log2 Fold Change (gene Cfl2): -0.1976
- Log2 Fold Change (gene Chac1): -0.2399
- Log2 Fold Change (gene Chfr): 0.2966
- Log2 Fold Change (gene Chmp2b): 0.2323
- Log2 Fold Change (gene Chpf2): 0.2848
- Log2 Fold Change (gene Chtf18): -0.2476
- Log2 Fold Change (gene Cited2): 0.4541
- Log2 Fold Change (gene Cluh): -0.1887
- Log2 Fold Change (gene Cmya5): 0.5159
- Log2 Fold Change (gene Cnksr3): 0.2811
- Log2 Fold Change (gene Col4a5): 0.2799
- Log2 Fold Change (gene Col5a2): 0.2698
- Log2 Fold Change (gene Col6a1): 0.3903
- Log2 Fold Change (gene Col11a1): 0.5083
- Log2 Fold Change (gene Col16a1): 0.3017
- Log2 Fold Change (gene Colec12): 0.4192
- Log2 Fold Change (gene Copz2): 0.3357
- Log2 Fold Change (gene Coq9): 0.2858
- Log2 Fold Change (gene Cox6a2): 0.5376
- Log2 Fold Change (gene Cox8b): 0.7326
- Log2 Fold Change (gene Cped1): 0.6959
- Log2 Fold Change (gene Cpne8): -0.3134
- Log2 Fold Change (gene Cpq): 0.4083
- Log2 Fold Change (gene Crabp1): -0.8383
- Log2 Fold Change (gene Crebl2): 0.2826
- Log2 Fold Change (gene Crip2): -0.3501
- Log2 Fold Change (gene Crlf1): 0.7651
- Log2 Fold Change (gene Csad): 0.2653
- Log2 Fold Change (gene Csdc2): 0.7714
- Log2 Fold Change (gene Csrp1): 0.3415
- Log2 Fold Change (gene Ctdsp2-ps): 0.2838
- Log2 Fold Change (gene Ctsa): 0.2699
- Log2 Fold Change (gene Ctso): 0.4681
- Log2 Fold Change (gene Cttnbp2nl): -0.2908
- Log2 Fold Change (gene Cx3cl1): 0.4055
- Log2 Fold Change (gene Cxcl5): 0.6442
- Log2 Fold Change (gene Cxcl12): 0.7796
- Log2 Fold Change (gene Cyb5a): 0.3792
- Log2 Fold Change (gene Cyp1a1): 0.8267
- Log2 Fold Change (gene Cyp1b1): 0.9979
- Log2 Fold Change (gene Cyp4v3): 0.8065
- Log2 Fold Change (gene Cyp26b1): 0.8568
- Log2 Fold Change (gene Cyp51): 0.2145
- Log2 Fold Change (gene D030025P21Rik): -0.817
- Log2 Fold Change (gene Daam1): -0.4049
- Log2 Fold Change (gene Daam2): 1.096
- Log2 Fold Change (gene Dab2): -0.189
- Log2 Fold Change (gene Dact3): 0.3342
- Log2 Fold Change (gene Dap): 0.2446
- Log2 Fold Change (gene Dbn1): -0.2854
- Log2 Fold Change (gene Dbp): 0.5516
- Log2 Fold Change (gene Dcaf6): 0.2596
- Log2 Fold Change (gene Dcbld2): -0.2221
- Log2 Fold Change (gene Dclk1): 0.2203
- Log2 Fold Change (gene Ddit4): 0.1825
- Log2 Fold Change (gene Dhrs9): 0.3599
- Log2 Fold Change (gene Diras2): 0.8102
- Log2 Fold Change (gene Dkk2): -0.6215
- Log2 Fold Change (gene Dnajb4): 0.2471
- Log2 Fold Change (gene Dock7): -0.1804
- Log2 Fold Change (gene Dock8): -0.5377
- Log2 Fold Change (gene Dpp7): 0.2978
- Log2 Fold Change (gene Dpysl3): -0.327
- Log2 Fold Change (gene Dstn): 0.2475
- Log2 Fold Change (gene Dusp1): 0.337
- Log2 Fold Change (gene Dusp9): -0.3562
- Log2 Fold Change (gene Dynap): -1.032
- Log2 Fold Change (gene Dync1h1): -0.2247
- Log2 Fold Change (gene Dync2li1): 0.3089
- Log2 Fold Change (gene Ech1): 0.3451
- Log2 Fold Change (gene Edil3): -1.0691
- Log2 Fold Change (gene Eef1a2): 0.5368
- Log2 Fold Change (gene Efnb2): -0.4395
- Log2 Fold Change (gene Egr1): 0.6964
- Log2 Fold Change (gene Emb): 0.4199
- Log2 Fold Change (gene Emilin1): 0.632
- Log2 Fold Change (gene Emilin2): 0.3255
- Log2 Fold Change (gene Emp2): 0.1909
- Log2 Fold Change (gene En1): 0.3071
- Log2 Fold Change (gene Enc1): -0.2049
- Log2 Fold Change (gene Epg5): -0.2899
- Log2 Fold Change (gene Ephx1): 0.682
- Log2 Fold Change (gene Erbin): 0.3234
- Log2 Fold Change (gene Etv4): -0.4971
